Measured values published in the supplement of paper PMC6078165.
Values are relative to the signal before dosing, not to a vehicle control; the signal also falls without drug.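 Fibroblast labels name human fibroblasts: mostly primary ones from tissues such as uterus (C12385, HUF), lung (H6013), bone (Hs27A), adrenal (HADF) and skin (WS1), plus mammary HMF and breast cancer-associated Hs343T. The cancer cells are basal-like or mesenchymal-like triple-negative breast cancer lines. The paper calls a changed response a hit when it shifts by more than 3x the replicate standard deviation. The tissue of the other fibroblasts is not given here.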

System: MDAMB468
Assay: relative JC-1 red fluorescence (viability) vs pre-drug, coculture with fibroblast (fraction); higher = more viable cancer cells
Procedure: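 JC-1 labelled TNBC cells cocultured 1:1 (1,500 cells each) with CellTrace Violet stained primary or stromal fibroblasts in 384-well plates in FluoroBrite medium, treated with one of 42 anticancer drugs at 0.1, 1, 10 or 100 uM. JC-1 red fluorescence (mitochondrial integrity in cancer cells only) was read by plate reader every 8 h for 72 h. Values are normalised to each well's pre-drug value. The stock of one drug was tenfold lower, so its dose labels may be too high.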

CO[C@H]1C[C@@H]2CC[C@@H](C)[C@@](O)(O2)C(=O)C(=O)N2CCCC[C@H]2C(=O)O[C@H]([C@H](C)C[C@@H]2CC[C@@H](O)[C@H](OC)C2)CC(=O)[C@H](C)/C=C(\C)[C@@H](O)[C@@H](OC)C(=O)[C@H](C)C[C@H](C)/C=C/C=C/C=C/1C [Rapamycin]
relative JC-1 red fluorescence
Conditions | 8 h | 16 h | 24 h | 32 h | 40 h | 48 h | 56 h | 64 h | 72 h
0.1 µM, coculture fibroblast: C12385 | 0.859 | 0.777 | 0.734 | 0.684 | 0.643 | 0.63 | 0.604 | 0.583 | 0.573
0.1 µM, coculture fibroblast: H6013 | 0.8388 | 0.8436 | 0.80445 | 0.7983 | 0.783 | 0.799 | 0.785 | 0.785 | 0.752
0.1 µM, coculture fibroblast: H6019 | 0.8343 | 0.797 | 0.752 | 0.704 | 0.667 | 0.657 | 0.619 | 0.592 | 0.58
0.1 µM, coculture fibroblast: H6076 | 0.9194 | 0.899 | 0.904 | 0.881 | 0.824 | 0.81 | 0.772 | 0.756 | 0.777
0.1 µM, coculture fibroblast: H6231 | 0.821 | 0.864 | 0.887 | 0.857 | 0.814 | 0.7861 | 0.7361 | 0.7087 | 0.6891
0.1 µM, coculture fibroblast: HADF | 0.867 | 0.8089 | 0.757 | 0.7495 | 0.711 | 0.721 | 0.684 | 0.6822 | 0.6551
0.1 µM, coculture fibroblast: HCFa | 0.821 | 0.8 | 0.747 | 0.73 | 0.677 | 0.687 | 0.64 | 0.6042 | 0.5631
0.1 µM, coculture fibroblast: HCPF | 0.86 | 0.9255 | 0.852 | 0.8538 | 0.7872 | 0.767 | 0.709 | 0.698 | 0.688
0.1 µM, coculture fibroblast: HHSteC | 0.873 | 0.84 | 0.815 | 0.792 | 0.765 | 0.775 | 0.725 | 0.706 | 0.664
0.1 µM, coculture fibroblast: HMF | 0.79698 | 0.977 | 0.881 | 0.838 | 0.783 | 0.758 | 0.708 | 0.693 | 0.673
0.1 µM, coculture fibroblast: HPFa | 0.925 | 0.8614 | 0.8334 | 0.789 | 0.773 | 0.787 | 0.736 | 0.723 | 0.655
0.1 µM, coculture fibroblast: HUF | 0.8963 | 0.818 | 0.767 | 0.715 | 0.677 | 0.658 | 0.616 | 0.602 | 0.587
0.1 µM, coculture fibroblast: Hs5 | 0.814 | 0.961 | 0.873 | 0.841 | 0.781 | 0.742 | 0.695 | 0.659 | 0.669
0.1 µM, coculture fibroblast: Hs27A | 0.844 | 0.7926 | 0.733 | 0.741 | 0.684 | 0.692 | 0.659 | 0.652 | 0.624
0.1 µM, coculture fibroblast: Hs343T | 0.8712 | 0.949 | 0.87 | 0.8344 | 0.7662 | 0.7519 | 0.7124 | 0.699 | 0.679
0.1 µM, coculture fibroblast: WS1 | 0.8432 | 0.7775 | 0.728 | 0.669 | 0.618 | 0.583 | 0.558 | 0.535 | 0.526
1 µM, coculture fibroblast: C12385 | 0.8725 | 0.842 | 0.811 | 0.771 | 0.735 | 0.729 | 0.697 | 0.685 | 0.672
1 µM, coculture fibroblast: H6013 | 0.875 | 0.867 | 0.839 | 0.851 | 0.822 | 0.833 | 0.813 | 0.808 | 0.786
1 µM, coculture fibroblast: H6019 | 0.877 | 0.87 | 0.865 | 0.829 | 0.805 | 0.82 | 0.799 | 0.787 | 0.775
1 µM, coculture fibroblast: H6076 | 0.916 | 0.972 | 0.937 | 0.9296 | 0.8856 | 0.886 | 0.854 | 0.841 | 0.885
1 µM, coculture fibroblast: H6231 | 0.814 | 0.936 | 0.873 | 0.874 | 0.83843 | 0.8252 | 0.77 | 0.755 | 0.755
1 µM, coculture fibroblast: HADF | 0.865 | 0.848 | 0.8017 | 0.8058 | 0.7659 | 0.763 | 0.726 | 0.727 | 0.692
1 µM, coculture fibroblast: HCFa | 0.846 | 0.842 | 0.813 | 0.806 | 0.743 | 0.751 | 0.713 | 0.697 | 0.653
1 µM, coculture fibroblast: HCPF | 0.845 | 0.929 | 0.8781 | 0.87483 | 0.826 | 0.802 | 0.76 | 0.75 | 0.743
1 µM, coculture fibroblast: HHSteC | 0.8734 | 0.8492 | 0.82705 | 0.8142 | 0.77388 | 0.781 | 0.74 | 0.722 | 0.683
1 µM, coculture fibroblast: HMF | 0.8269 | 0.973 | 0.919 | 0.899 | 0.85 | 0.841 | 0.801 | 0.795 | 0.784
1 µM, coculture fibroblast: HPFa | 0.899 | 0.907 | 0.898 | 0.8666 | 0.84 | 0.859 | 0.814 | 0.809 | 0.756
1 µM, coculture fibroblast: HUF | 0.87583 | 0.852 | 0.824 | 0.778 | 0.741 | 0.726 | 0.689 | 0.679 | 0.666
1 µM, coculture fibroblast: Hs5 | 0.9729 | 0.9455 | 0.919 | 0.894 | 0.828 | 0.807 | 0.777 | 0.749 | 0.774
1 µM, coculture fibroblast: Hs27A | 0.82 | 0.8085 | 0.7566 | 0.7738 | 0.7252 | 0.736 | 0.7115 | 0.7 | 0.677
1 µM, coculture fibroblast: Hs343T | 0.866 | 0.964 | 0.9078 | 0.883 | 0.8257 | 0.807 | 0.754 | 0.753 | 0.742
1 µM, coculture fibroblast: WS1 | 0.8642 | 0.807 | 0.775 | 0.724 | 0.689 | 0.663 | 0.649 | 0.639 | 0.632
